The values that follow come from paper PMC3654991.

No constants are given. Whether binding was seen depends on the method and setting. For some assays here: A result given as binding can be weak or reduced; the word gives no strength. Where a sequence is shown, tags or fusion partners need not be part of it.

Test [1] has as its target recombinant His-RBP16 (T. brucei). The experiment in a line: far-Western, overlay or dot blot; His-tagged proteins run on denaturing 10% SDS-PAGE, transferred to PVDF; membrane incubated with 0.5-1.0 μg purified TbPRMT1 in TBS-T with 2% nonfat dry milk overnight at 4°C; detected with anti-TbPRMT1 polyclonal antibodies; both purified.
Test [2] deals with recombinant His-TbLpn (T. brucei). The description is as above.

B1: recombinant His-TbPRMT1 (enzyme, UniProt Q4GYA9 1-345)
chain: MTVDANAASSTTTTTDYYFDSYSHYGIHMEMLKDCHRTTSYRDAMWRNAYLFKDKVVLDVGCGTGILSMFAAKAGARKVIGVDCSTVAVQAREIVRDNGFEDVITIIQGKVEEIQLDEKVDIIISEWMGYFLLYESMLNTVLYARDNLGTPDVKMFPDKANMHVCGITDEQYIQERFNIWDNVQGIDFSYFKRLSFIEPLVDTVERSQIVTNVAPLVSFDINTVKEADLSFTSEFALEAQASRGKRNGGNSIIYVHALSVHFDTPFTAGHEVVILDTTPYSPPTHWRQTVLYLFNPLRMRAGERATFRMKCSPNALNGRDLDISLHVDFEGALQISHYDQDFRLR
Regarding B1, the binding result is reported as “no binding (tested: 0.5-1.0 μg of purified TbPRMT1)” in test [1] and “binds” in test [2].
